PubChem BioAssay AID652272 – Drosophila RNAi Screening Center | 2013
Aim: 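Genome-wide knock-down search for components of Hedgehog signalling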 (primary screen). System: Drosophila clone 8 (Cl8) cells. Reagents: long dsRNA against Drosophila genes. Detection: 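Plate reader light from a firefly reporter under a ptc promoter fragment that responds to Hedgehog, with Renilla light as transfection reference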. Scale: firefly Hh reporter signal: higher = more ptc reporter light; Renilla reference signal: higher = more Renilla control light. Rule for the call: 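Called a hit if the two-replicate mean z-score lies below -2 or above +3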. Calls: active = hit: reporter lowered or raised; inactive = not a hit.
The screen tested about 21,000 reagents; this is an unselected part of those that have a named target and a result. In the full data, 503 (2.4%) were called active. 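Raw plate light values, not normalised; calls rest on replicate z-scores that were not deposited; hits include reporter decreases as well as increases.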 Reagents against one gene are numbered here. A plus sign joins genes that one reagent is predicted to hit. No sequences are given here. Not stated in the record: the amount of reagent, the time to read-out.

Against CG42538, the values are firefly Hh reporter signal, replicate 1 = 2.47e5; Renilla reference signal, replicate 1 = 5741; inactive. CG4666 scored firefly Hh reporter signal, replicate 1 = 1.12e5; firefly Hh reporter signal, replicate 2 = 2.92e5; Renilla reference signal, replicate 1 = 3128; Renilla reference signal, replicate 2 = 10733; inactive. Knock-down of CG17028 came out at: firefly Hh reporter signal, replicate 1 = 1.27e5; Renilla reference signal, replicate 1 = 1895; Renilla reference signal, replicate 2 = 3660; inactive. Against msd1, the values are firefly Hh reporter signal, replicate 1 = 60752; firefly Hh reporter signal, replicate 2 = 40620; Renilla reference signal, replicate 1 = 2333; Renilla reference signal, replicate 2 = 3330; inactive. CG31156 #1 gave firefly Hh reporter signal, replicate 1 = 1.14e5; firefly Hh reporter signal, replicate 2 = 97248; Renilla reference signal, replicate 1 = 4999; Renilla reference signal, replicate 2 = 3437; inactive. Depletion of CG31156 #2 came out at: firefly Hh reporter signal, replicate 1 = 5.21e5; firefly Hh reporter signal, replicate 2 = 1.15e5; Renilla reference signal, replicate 1 = 26577; Renilla reference signal, replicate 2 = 3136; inactive.

Silencing of fd59A resulted in: firefly Hh reporter signal, replicate 1 = 72491; firefly Hh reporter signal, replicate 2 = 54420; Renilla reference signal, replicate 1 = 3239; Renilla reference signal, replicate 2 = 2185; inactive. With knock-down of RpL22, the record shows firefly Hh reporter signal, replicate 1 = 2.44e5; firefly Hh reporter signal, replicate 2 = 1.20e5; firefly Hh reporter signal, replicate 3 = 2.11e5; Renilla reference signal, replicate 1 = 1672; Renilla reference signal, replicate 2 = 5080; active. Rat1 showed firefly Hh reporter signal, replicate 1 = 1.08e5; firefly Hh reporter signal, replicate 2 = 36267; Renilla reference signal, replicate 1 = 5222; Renilla reference signal, replicate 2 = 2240; inactive. Knock-down of Cyp6a9 came out at: firefly Hh reporter signal, replicate 1 = 1.73e5; firefly Hh reporter signal, replicate 2 = 78860; Renilla reference signal, replicate 1 = 4813; Renilla reference signal, replicate 2 = 7532; inactive. Knock-down of CG42518 + MED9 resulted in: firefly Hh reporter signal, replicate 1 = 1.33e5; firefly Hh reporter signal, replicate 2 = 77592; Renilla reference signal, replicate 1 = 5764; Renilla reference signal, replicate 2 = 2880; inactive. For CG42853, the values are firefly Hh reporter signal, replicate 1 = 2.22e5; Renilla reference signal, replicate 1 = 4807; inactive.

For Atg9 the deposit lists firefly Hh reporter signal, replicate 1 = 92653; firefly Hh reporter signal, replicate 2 = 68771; Renilla reference signal, replicate 1 = 3722; Renilla reference signal, replicate 2 = 2885; inactive. For CG12104, the entry reads firefly Hh reporter signal, replicate 1 = 88441; firefly Hh reporter signal, replicate 2 = 69904; Renilla reference signal, replicate 1 = 6220; Renilla reference signal, replicate 2 = 4604; active.

No new results follow: 3 of the entries above.
CG42518 + MED9: firefly Hh reporter signal, replicate 1 = 1.33e5; firefly Hh reporter signal, replicate 2 = 77592; Renilla reference signal, replicate 1 = 5764; Renilla reference signal, replicate 2 = 2880; activity call = inactive
CG42853: firefly Hh reporter signal, replicate 1 = 2.22e5; Renilla reference signal, replicate 1 = 4807; activity call = inactive
Atg9: firefly Hh reporter signal, replicate 1 = 92653; firefly Hh reporter signal, replicate 2 = 68771; Renilla reference signal, replicate 1 = 3722; Renilla reference signal, replicate 2 = 2885; activity call = inactive

The listing continues.
For CG10631 the deposit lists firefly Hh reporter signal, replicate 1 = 1.14e5; firefly Hh reporter signal, replicate 2 = 79351; Renilla reference signal, replicate 1 = 4480; Renilla reference signal, replicate 2 = 3664; inactive. MICAL-like showed firefly Hh reporter signal, replicate 1 = 96300; firefly Hh reporter signal, replicate 2 = 63560; Renilla reference signal, replicate 1 = 4115; Renilla reference signal, replicate 2 = 2260; inactive. NHP2 scored firefly Hh reporter signal, replicate 1 = 50941; Renilla reference signal, replicate 1 = 4080; Renilla reference signal, replicate 2 = 1846; inactive. Silencing of asRNA:CR31514 + CG12947 gave: firefly Hh reporter signal, replicate 1 = 58567; firefly Hh reporter signal, replicate 2 = 1.27e5; Renilla reference signal, replicate 1 = 1969; Renilla reference signal, replicate 2 = 3138; inactive. Depletion of rdo came out at: firefly Hh reporter signal, replicate 1 = 53066; firefly Hh reporter signal, replicate 2 = 96032; Renilla reference signal, replicate 1 = 2512; Renilla reference signal, replicate 2 = 3699; inactive. After knock-down of CG7974 the results were firefly Hh reporter signal, replicate 1 = 1.37e5; firefly Hh reporter signal, replicate 2 = 80131; Renilla reference signal, replicate 1 = 5290; Renilla reference signal, replicate 2 = 3803; inactive.

After knock-down of Cipc #1 the results were firefly Hh reporter signal, replicate 1 = 1.15e5; firefly Hh reporter signal, replicate 2 = 84952; Renilla reference signal, replicate 1 = 2864; Renilla reference signal, replicate 2 = 2596; inactive. After knock-down of Cipc #2, the screen gave firefly Hh reporter signal, replicate 1 = 4.91e5; firefly Hh reporter signal, replicate 2 = 99923; Renilla reference signal, replicate 1 = 27293; Renilla reference signal, replicate 2 = 3754; inactive.
